Data on 1 substance can be found in PMC11986068.

Protein sequences, listed by entry. Tags and fused reporters are not part of them. Residues count along the entry.
UniProt Q61220, residues 25-819: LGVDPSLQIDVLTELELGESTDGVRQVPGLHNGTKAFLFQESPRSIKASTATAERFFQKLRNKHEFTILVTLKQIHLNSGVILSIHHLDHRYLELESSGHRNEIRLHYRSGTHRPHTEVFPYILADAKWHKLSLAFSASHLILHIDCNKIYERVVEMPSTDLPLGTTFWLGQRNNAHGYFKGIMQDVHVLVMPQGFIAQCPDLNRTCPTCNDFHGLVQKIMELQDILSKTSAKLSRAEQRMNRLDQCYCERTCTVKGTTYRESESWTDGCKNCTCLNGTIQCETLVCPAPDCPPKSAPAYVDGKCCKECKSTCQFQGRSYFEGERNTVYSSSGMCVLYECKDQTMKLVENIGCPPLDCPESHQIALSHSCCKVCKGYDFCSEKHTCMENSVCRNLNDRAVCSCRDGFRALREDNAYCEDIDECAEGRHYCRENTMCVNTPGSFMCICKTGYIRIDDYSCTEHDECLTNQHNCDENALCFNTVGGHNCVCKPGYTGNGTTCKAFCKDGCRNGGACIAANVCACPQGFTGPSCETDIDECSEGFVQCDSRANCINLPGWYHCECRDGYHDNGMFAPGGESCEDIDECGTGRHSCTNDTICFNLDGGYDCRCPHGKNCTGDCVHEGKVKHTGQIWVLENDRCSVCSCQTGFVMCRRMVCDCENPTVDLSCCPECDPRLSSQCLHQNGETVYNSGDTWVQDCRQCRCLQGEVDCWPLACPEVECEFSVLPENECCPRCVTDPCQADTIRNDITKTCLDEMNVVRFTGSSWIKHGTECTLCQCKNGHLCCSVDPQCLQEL
UniProt P11276, residues 33-2477: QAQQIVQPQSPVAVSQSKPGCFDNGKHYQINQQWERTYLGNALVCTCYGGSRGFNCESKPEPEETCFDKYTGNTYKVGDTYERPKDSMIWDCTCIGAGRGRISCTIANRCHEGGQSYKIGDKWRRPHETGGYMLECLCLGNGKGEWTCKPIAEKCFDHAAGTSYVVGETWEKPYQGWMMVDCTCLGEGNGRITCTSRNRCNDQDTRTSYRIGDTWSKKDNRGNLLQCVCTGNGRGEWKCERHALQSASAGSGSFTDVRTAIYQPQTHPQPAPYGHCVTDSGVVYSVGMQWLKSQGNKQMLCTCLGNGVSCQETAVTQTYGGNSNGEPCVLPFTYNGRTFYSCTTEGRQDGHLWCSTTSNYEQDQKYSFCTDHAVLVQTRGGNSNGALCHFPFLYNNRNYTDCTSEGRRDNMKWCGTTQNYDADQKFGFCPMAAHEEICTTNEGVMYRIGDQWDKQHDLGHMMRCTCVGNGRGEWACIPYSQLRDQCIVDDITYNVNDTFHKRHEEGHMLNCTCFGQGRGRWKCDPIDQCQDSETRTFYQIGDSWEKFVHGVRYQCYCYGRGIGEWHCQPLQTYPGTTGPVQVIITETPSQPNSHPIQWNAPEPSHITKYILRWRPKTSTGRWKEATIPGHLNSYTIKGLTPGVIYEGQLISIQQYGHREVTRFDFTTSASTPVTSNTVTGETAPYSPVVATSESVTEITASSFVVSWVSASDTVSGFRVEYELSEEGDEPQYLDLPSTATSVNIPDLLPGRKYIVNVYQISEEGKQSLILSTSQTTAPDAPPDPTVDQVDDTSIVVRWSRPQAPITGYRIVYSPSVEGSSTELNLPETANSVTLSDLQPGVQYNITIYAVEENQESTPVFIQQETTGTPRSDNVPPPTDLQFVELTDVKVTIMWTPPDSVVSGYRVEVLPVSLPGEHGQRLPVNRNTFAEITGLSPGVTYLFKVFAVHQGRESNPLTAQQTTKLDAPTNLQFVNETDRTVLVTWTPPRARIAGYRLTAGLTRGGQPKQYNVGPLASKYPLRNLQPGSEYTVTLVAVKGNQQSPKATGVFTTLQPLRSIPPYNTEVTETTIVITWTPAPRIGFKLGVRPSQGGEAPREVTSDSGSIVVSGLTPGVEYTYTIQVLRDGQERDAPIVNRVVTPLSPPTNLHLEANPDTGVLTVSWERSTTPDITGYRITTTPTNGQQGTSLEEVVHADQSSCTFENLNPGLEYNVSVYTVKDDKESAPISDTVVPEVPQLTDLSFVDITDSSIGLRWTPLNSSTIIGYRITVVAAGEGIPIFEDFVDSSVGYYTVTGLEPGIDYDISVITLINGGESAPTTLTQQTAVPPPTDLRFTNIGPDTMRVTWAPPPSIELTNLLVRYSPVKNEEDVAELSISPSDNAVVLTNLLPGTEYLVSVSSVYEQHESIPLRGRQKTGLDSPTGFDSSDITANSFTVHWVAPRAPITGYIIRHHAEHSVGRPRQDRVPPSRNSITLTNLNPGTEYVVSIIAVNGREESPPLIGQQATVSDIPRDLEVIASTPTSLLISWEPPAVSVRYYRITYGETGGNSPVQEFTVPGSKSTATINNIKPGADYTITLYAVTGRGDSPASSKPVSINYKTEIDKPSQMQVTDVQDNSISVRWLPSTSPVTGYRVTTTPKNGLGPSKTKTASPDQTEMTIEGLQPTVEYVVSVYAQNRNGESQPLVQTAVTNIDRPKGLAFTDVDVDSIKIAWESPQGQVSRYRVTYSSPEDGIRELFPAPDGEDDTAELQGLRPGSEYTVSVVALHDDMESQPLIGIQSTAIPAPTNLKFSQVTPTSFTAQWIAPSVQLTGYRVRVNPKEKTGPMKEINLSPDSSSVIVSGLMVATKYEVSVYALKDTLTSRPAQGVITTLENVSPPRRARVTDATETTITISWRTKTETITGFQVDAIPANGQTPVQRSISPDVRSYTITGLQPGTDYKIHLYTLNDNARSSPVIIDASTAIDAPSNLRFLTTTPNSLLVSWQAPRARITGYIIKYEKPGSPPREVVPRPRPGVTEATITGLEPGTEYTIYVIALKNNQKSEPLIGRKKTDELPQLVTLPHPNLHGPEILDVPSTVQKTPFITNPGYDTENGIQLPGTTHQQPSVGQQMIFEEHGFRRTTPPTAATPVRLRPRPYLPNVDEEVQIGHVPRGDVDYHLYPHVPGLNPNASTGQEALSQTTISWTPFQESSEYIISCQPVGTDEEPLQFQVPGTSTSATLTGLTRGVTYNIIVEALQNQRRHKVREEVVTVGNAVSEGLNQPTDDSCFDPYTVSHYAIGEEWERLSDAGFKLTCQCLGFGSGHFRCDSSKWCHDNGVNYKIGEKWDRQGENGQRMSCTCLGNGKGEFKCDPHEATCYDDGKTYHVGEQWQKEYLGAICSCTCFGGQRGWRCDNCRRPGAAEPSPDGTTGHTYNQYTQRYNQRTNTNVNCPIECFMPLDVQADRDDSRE

No constants are given. Whether binding was seen depends on the method and setting. Binding seen in cells or lysates may run through a third protein. A yes stands for co-enrichment or nearness to the bait. Other partners may have been found.

The test has as its target His-labeled recombinant NELL2 (UniProt Q61220). As to the kind of experiment: affinity purification with mass spectrometry; BMSC membrane proteins incubated with His-labeled recombinant NELL2 and anti-His antibody, adsorbed to protein A/G magnetic beads at room temperature for 30 min; eluate on SDS-PAGE, bands digested, LC-MS/MS; only the target purified.

For “Fibronectin 1 (Fn1), endogenous in BMSC membrane proteins (from UniProt P11276 33-2477)”, the binding entry is given as “binds”.
